In patent US20220242904A1:
These are yes or no findings as the source states them, for the method shown. For part of these data: A result given as binding can be weak or reduced; the word gives no strength.

Tests used:
type IV collagen [1] = assay: condition: peptide tested at 5, 10, 25, 50, and 100 µg/mL; slot blot, peptide on NC membrane, 1% collagen solution added
type I collagen = assay: slot blot, peptide (5-100 µg/mL) on NC membrane, 1% collagen solution added
type IV collagen [2] = assay: as above

B1: peptide of SEQ ID NO: 3 (Human osteonectin 160-173) (peptide)
peptide: LTEFPLRMRDWLKN
With B1 the binding (type IV collagen [1]) was “no binding” and the binding (type I collagen) was “binds”.

B2: peptide of SEQ ID NO: 1 (Human bone sialoprotein I 149-169) (peptide)
peptide: YGLRSKSKKFRRPDIQYPDAT
In the case of B2, the binding (type I collagen) is reported as “binds” and the binding (type IV collagen [2]) is reported as “binds”.

B3: peptide of SEQ ID NO: 2 (Human bone sialoprotein II 41-60) (peptide)
peptide: RPRYYLYKHAYFYPHLKRFP
In the case of B3, the binding (type IV collagen [1]) is reported as “no binding” and the binding (type I collagen) is reported as “binds”.
